Assay: Chemiluminescence intensity over time after triggering the dioxetane with alkaline amine-based 221 buffer
Format: physicochemical
Conditions: compare FIG. 5 and FIG. 1

## C=Cc1ccc(C2(OC)OOC23C2CC4CC(C2)CC3C4)cc1O (stereo not shown) [Example 5]
  intensity of luminescence relative to the corresponding unsubstituted compound: at least 20 ×

Reference: patent US20220390459A1, “RAPID, HIGH-INTENSITY CHEMILUMINESCENT DIOXETANES” (Beckman Coulter, Inc., priority 2019, published 2022)
